Measurements reported in PubChem BioAssay AID1159578 (Peter MacCallum Cancer Centre, 2015).
In all, the deposit lists about 18,000 reagents; shown is an unselected part. About 1,030 of them (5.7%) were called active. 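Inactive calls also include pools with fewer than 3300 nuclei, whose migration was not assessed.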 The raw values are shown without normalisation.

Assay: 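siRNA pools altering how lymphatic endothelial cells close a scratch wound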 (primary screen)
Cell system: human lymphatic endothelial cells
Reagents: siRNA pool against human genes, 40 nM
Timing: 48 h after transfection
Detection: 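High-content imaging of dye-stained cells in a scratch assay measures filled wound area and nuclei per well; duplicate means given as ratio to mock and robust z-score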
Scale: migration robust z-score: higher = faster migration into the scratch; migration relative to mock: higher = more scratch area covered than mock; nuclei per well: higher = more cells in the well
Rule for the call: 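Pools averaging fewer than 3300 nuclei are never called; remaining pools count as changed when migration robust z lies outside -2 to 2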
Calls: active = migration changed; inactive = no migration change, or too few cells

no.	gene knocked down	migration robust z-score	migration class with cell-count check	migration relative to mock	nuclei per well, duplicate mean	Call
1	TGFB1I1 (transforming growth factor beta 1 induced transcript 1)	-0.96	migration z between -2 and 2; enough cells	0.62	6403	inactive
2	OR2T1 (olfactory receptor family 2 subfamily T member 1)	0.28	migration z between -2 and 2; enough cells	0.96	5448	inactive
3	MACIR (macrophage immunometabolism regulator)	0.94	migration z between -2 and 2; enough cells	1.13	4900	inactive
4	FCHO2 (FCH and mu domain containing endocytic adaptor 2)	0.04	migration z between -2 and 2; enough cells	0.9	7121	inactive
5	NCOA3 (nuclear receptor coactivator 3)	1.33	migration z between -2 and 2; enough cells	1.06	6161	inactive
6	ZBED3 (zinc finger BED-type containing 3)	-1.14	migration z between -2 and 2; enough cells	0.58	5496	inactive
7	PRND (prion like protein doppel)	-1.29	migration z between -2 and 2; enough cells	0.55	5248	inactive
8	EPHX3 (epoxide hydrolase 3)	-1.64	migration z between -2 and 2; enough cells	0.49	5556	inactive
9	FBP1 (fructose-bisphosphatase 1)	0.2	migration z between -2 and 2; enough cells	0.84	4265	inactive
10	CDHR1 (cadherin related family member 1)	1.68	migration z between -2 and 2; enough cells	1.32	5224	inactive
11	RANGAP1 (Ran GTPase activating protein 1)	1.62	migration z between -2 and 2; enough cells	1.31	5830	inactive
12	TMEM266 (transmembrane protein 266)	1.8	migration z between -2 and 2; enough cells	1.35	5599	inactive
13	ANXA8L1 (annexin A8 like 1)	-0.47	migration z between -2 and 2; enough cells	0.72	5741	inactive
14	PAX3 (paired box 3)	-0.6	migration z between -2 and 2; enough cells	0.69	6526	inactive
15	KRT3 (keratin 3)	0.1	migration z between -2 and 2; enough cells	0.91	6291	inactive
16	MAPK12 (mitogen-activated protein kinase 12)	0.13	migration z between -2 and 2; enough cells	0.83	5365	inactive
17	MRPS31 (mitochondrial ribosomal protein S31)	2.23	migration z above 2; enough cells	1.46	6258	active
18	PDAP1 (PDGFA associated protein 1)	0.54	migration z between -2 and 2; enough cells	1.02	5630	inactive

Called active, of those listed so far:
gene knocked down	migration robust z-score	migration class with cell-count check	migration relative to mock	nuclei per well, duplicate mean	Call
MRPS31 (mitochondrial ribosomal protein S31)	2.23	migration z above 2; enough cells	1.46	6258	active

Additional reagents follow.
no.	gene knocked down	migration robust z-score	migration class with cell-count check	migration relative to mock	nuclei per well, duplicate mean	Call
19	CTDSP2 (CTD small phosphatase 2)	-1.27	migration z between -2 and 2; enough cells	0.56	5514	inactive
20	TRAF2 (TNF receptor associated factor 2)	-0.91	migration z between -2 and 2; enough cells	0.65	4992	inactive
21	RPL35A (ribosomal protein L35a)	-2.38	migration z below -2; enough cells	0.26	3970	active
22	HSF2BP (heat shock transcription factor 2 binding protein)	-0.56	migration z between -2 and 2; enough cells	0.74	5976	inactive
23	ASTE1 (asteroid structure-specific endonuclease 1)	1.99	migration z between -2 and 2; enough cells	1.39	6216	inactive
24	COG3 (component of oligomeric golgi complex 3)	-0.05	migration z between -2 and 2; enough cells	0.87	6700	inactive
25	KRT7 (keratin 7)	-0.15	migration z between -2 and 2; enough cells	0.84	6102	inactive
26	SUZ12 (SUZ12 polycomb repressive complex 2 subunit)	-1.84	migration z between -2 and 2; enough cells	0.45	4272	inactive
27	PCDHGB6 (protocadherin gamma subfamily B, 6)	0.1	migration z between -2 and 2; enough cells	0.92	6496	inactive
28	ZNF596 (zinc finger protein 596)	-0.28	migration z between -2 and 2; enough cells	0.81	6170	inactive
29	CDX4 (caudal type homeobox 4)	0.73	migration z between -2 and 2; enough cells	0.95	6017	inactive
30	COMMD8 (COMM domain containing 8)	-0.01	migration z between -2 and 2; enough cells	0.88	5758	inactive
31	UNC13D (unc-13 homolog D)	0.8	migration z between -2 and 2; enough cells	1.1	6226	inactive
32	IL18 (interleukin 18)	0.74	migration z between -2 and 2; enough cells	1.07	5853	inactive
33	TIMM21 (translocase of inner mitochondrial membrane 21)	1.5	migration z between -2 and 2; enough cells	1.27	6351	inactive
34	RPL4 (ribosomal protein L4)	-1.09	migration z between -2 and 2; enough cells	0.6	4108	inactive
35	PRSS3 (serine protease 3)	-1.45	migration z between -2 and 2; enough cells	0.51	5832	inactive
36	PPP1R35 (protein phosphatase 1 regulatory subunit 35)	-2.41	migration z below -2; enough cells	0.26	5403	active
37	OR5AK2 (olfactory receptor family 5 subfamily AK member 2)	-0.3	migration z between -2 and 2; enough cells	0.81	5772	inactive
38	SCYL3 (SCY1 like pseudokinase 3)	-1.46	migration z between -2 and 2; enough cells	0.52	3989	inactive
39	BZW2 (basic leucine zipper and W2 domains 2)	1.12	migration z between -2 and 2; enough cells	1.02	5241	inactive
